In the supplement of paper PMC7877785:
± gives the uncertainty stated by the source. Many entries were measured with a wide error.

Experiment: self-splicing fitness, log relative to wild type (ln ratio); higher = more splicing; Tetrahymena group I intron in knt gene, E. coli kanamycin selection, DiMSum; sequences stand for … in CUCUCU…GGAGGGAAAAGUUAUCAGGCAUGCACCUGGUAGCUAGUCUUUAAACCAAUAGAUUGCAUCGGUUUAAAAGGCAAGACCGUCAAAUUGCGGGAAAGGGGUCAACAGCCGUUCAGUACCAAGUCUCAGGGGAAACUUUGAGAUGGCCUUGCAAAGGGUAUGGUAAUAAGCUGACGGACAUGGUCCUAACCACGCAGCCAAGUCCUAAGUCAACAGAUCUUCUGUUGAUAUGGAUGCAGUUCACAGACUAAAUGUCGGUCGGGGAAGAUGUAUUCUUCUCAUAAGAUAUAGUCGGACCUCUCCUUAAUGGGAGCUAGCGGAUGAAGUGAUGCAACACUGGAGCCGCUGGGAACUAAUUUGUAUGCGAAAGUAUAUUGAUUAGUUUUGGAGUACUCGUGGUCG
Outline: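 Colonies from six replicate transformations of E. coli BL21(DE3) were pooled and amplicon-sequenced on an Illumina HiSeq 2500. The library placed an intron with all eight P1ex-region nucleotides randomised inside the knt kanamycin-resistance gene on pET-22b(+), and cells grew overnight at 37°C or 30°C on LB agar with or without 25 μg/mL kanamycin (plus 100 μg/mL carbenicillin, 50 μM IPTG, 0.2% rhamnose). Fitness is the DiMSum error-weighted combination of wild-type-normalised replicate fold changes, kanamycin versus none.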

Row | Sequence | self-splicing fitness (ln) (37 °C) | self-splicing fitness (ln) (30 °C)
1 | GAAGAGCAAUAUUACGAAUG | -2.29 ± 1.1 | –
2 | GUUGAGCAAUAUUACGGCGG | – | -3.4 ± 1.1
3 | UCAGAGCAAUAUUACGAGAC | -2.4 ± 0.77 | -1.52 ± 0.61
4 | GCGUAGCAAUAUUACGCAAG | -5 ± 1 | –
5 | GAAAAGCAAUAUUACGAGGG | – | -4.83 ± 0.51
6 | CCAGAGCAAUAUUACGAUCU | -1.95 ± 0.57 | -4.57 ± 1
7 | GUUGAGCAAUAUUACGCCAU | – | -2.84 ± 0.53
8 | CACGAGCAAUAUUACGAACU | – | -3.06 ± 0.51
9 | AGGGAGCAAUAUUACGCCAU | -2.49 ± 0.62 | –
10 | CACGAGCAAUAUUACGCUCC | -1.98 ± 0.66 | -3.44 ± 0.53
11 | AUGGAGCAAUAUUACGGGGU | – | -3.13 ± 0.61
12 | CUUGAGCAAUAUUACGACAA | – | -3.09 ± 0.68
13 | CGGAAGCAAUAUUACGCAUA | – | -2.9 ± 0.61
14 | UCACAGCAAUAUUACGCUAU | – | -5.14 ± 0.51
15 | AACAAGCAAUAUUACGGGAA | -1.86 ± 0.13 | -1.57 ± 0.097
16 | GGAGAGCAAUAUUACGGCAG | -3.43 ± 0.6 | –
17 | UCAGAGCAAUAUUACGAGGC | -2.48 ± 1.1 | –
18 | GUAGAGCAAUAUUACGAAGG | -1.66 ± 0.55 | –
19 | CCGGAGCAAUAUUACGAGGA | – | -4.29 ± 1
20 | CCUUAGCAAUAUUACGCCCU | -1.36 ± 0.57 | –
21 | GUCUAGCAAUAUUACGGGCC | -2.61 ± 0.77 | –
22 | AACGAGCAAUAUUACGCCAC | -2.39 ± 0.77 | –
23 | GCCUAGCAAUAUUACGCAAG | -1.83 ± 0.53 | –
24 | CCCGAGCAAUAUUACGACAC | -2.13 ± 0.63 | –

Row | Sequence | self-splicing fitness (ln) (37 °C) | self-splicing fitness (ln) (30 °C)
25 | UCGCAGCAAUAUUACGACAC | -2.78 ± 0.41 | -1.67 ± 0.26
26 | GCGGAGCAAUAUUACGAAUC | -1.52 ± 0.71 | –
27 | GGGGAGCAAUAUUACGAGCC | – | -4.47 ± 1
28 | GCUAAGCAAUAUUACGUACA | -0.974 ± 0.13 | -1.38 ± 0.1
29 | CCUUAGCAAUAUUACGAUAC | -2.55 ± 0.54 | -1.67 ± 0.44
30 | UGGCAGCAAUAUUACGCUUC | -2.39 ± 1.1 | –
31 | UAUAAGCAAUAUUACGCGAC | -1.59 ± 0.84 | –
32 | GGGUAGCAAUAUUACGCCGC | – | -0.388 ± 0.58
33 | CUGUAGCAAUAUUACGAGUC | – | -4.09 ± 0.52
34 | GUUGAGCAAUAUUACGCCUC | -0.735 ± 1 | –
35 | UGCAAGCAAUAUUACGCCAA | -0.657 ± 0.19 | -1.67 ± 0.34
36 | GCAAAGCAAUAUUACGGUGG | -2.43 ± 0.19 | -2.27 ± 0.12
37 | GGGAAGCAAUAUUACGAAGA | -0.943 ± 0.23 | -2.81 ± 0.68
38 | UAGUAGCAAUAUUACGGAGG | – | -3.49 ± 0.54
39 | GUCUAGCAAUAUUACGCGGU | -1.04 ± 0.38 | -1.78 ± 0.26
40 | GUGUAGCAAUAUUACGAAGG | -2.6 ± 0.54 | -1.52 ± 0.87
41 | ACUGAGCAAUAUUACGUCCC | -1.92 ± 0.52 | –
42 | UAACAGCAAUAUUACGGAGC | – | -4.21 ± 0.59
43 | AAAAAGCAAUAUUACGCUUC | -2.92 ± 0.61 | –
44 | UCGUAGCAAUAUUACGCUUA | – | -3.72 ± 1
45 | UGCGAGCAAUAUUACGGAGU | – | -5.1 ± 0.51
46 | AUUGAGCAAUAUUACGCGGC | -2.96 ± 0.53 | –
47 | AGUUAGCAAUAUUACGGAGG | -2.13 ± 0.41 | -2.91 ± 0.3
48 | UGUAAGCAAUAUUACGGUCC | -1.29 ± 0.14 | -2.16 ± 0.14

An excerpt of these results, as a markdown table:

| Row | Sequence | self-splicing fitness (ln) (37 °C) | self-splicing fitness (ln) (30 °C) |
| --- | --- | --- | --- |
| 26 | GCGGAGCAAUAUUACGAAUC | -1.52 ± 0.71 | – |
| 27 | GGGGAGCAAUAUUACGAGCC | – | -4.47 ± 1 |
| 39 | GUCUAGCAAUAUUACGCGGU | -1.04 ± 0.38 | -1.78 ± 0.26 |

The list goes on:

Row | Sequence | self-splicing fitness (ln) (37 °C) | self-splicing fitness (ln) (30 °C)
49 | UUUUAGCAAUAUUACGAUAC | -1.43 ± 0.55 | –
50 | CCCUAGCAAUAUUACGAUUC | -3.33 ± 1 | –
51 | UUUUAGCAAUAUUACGCGUC | – | -2.37 ± 0.64
52 | UACGAGCAAUAUUACGCCGA | -1.56 ± 0.58 | -2.26 ± 0.56
53 | GUGCAGCAAUAUUACGGCUC | -0.129 ± 0.1 | -0.0701 ± 0.085
54 | GGGAAGCAAUAUUACGCUCU | – | -2.55 ± 0.78
55 | CCGGAGCAAUAUUACGUAAA | -2.09 ± 0.47 | -3.29 ± 0.25
56 | GGAUAGCAAUAUUACGGAAA | -3.06 ± 0.61 | -3.2 ± 0.52
57 | GGAGAGCAAUAUUACGGACG | – | -4.76 ± 0.74
58 | CUGAAGCAAUAUUACGCAUU | -2.45 ± 0.17 | -2.24 ± 0.12
59 | UCUGAGCAAUAUUACGCACG | -3.51 ± 0.52 | –
60 | UUGGAGCAAUAUUACGGUAC | -3.25 ± 0.6 | -3.08 ± 0.53
61 | CUACAGCAAUAUUACGGAUU | -2.5 ± 0.21 | -3.46 ± 0.14
62 | GGUGAGCAAUAUUACGACAG | -3.11 ± 0.6 | –
63 | AGACAGCAAUAUUACGGCGU | -0.314 ± 0.065 | -0.937 ± 0.057
64 | CUCCAGCAAUAUUACGAUCA | -0.538 ± 0.68 | -3.51 ± 0.73
65 | GUGGAGCAAUAUUACGCCAU | -1.79 ± 0.82 | -3.51 ± 0.61
66 | AAGGAGCAAUAUUACGCCAA | -3.11 ± 0.3 | -4.19 ± 0.46
67 | CUCGAGCAAUAUUACGAGAC | -2.6 ± 0.54 | -3.75 ± 0.73
68 | UUAGAGCAAUAUUACGUAGC | -1.41 ± 0.51 | –
69 | GUGUAGCAAUAUUACGCGAC | -1.02 ± 0.27 | -1.33 ± 0.45
70 | CUUCAGCAAUAUUACGUCUA | – | -4.73 ± 1
71 | UUAUAGCAAUAUUACGUCAU | – | -3.04 ± 0.5
72 | UGGGAGCAAUAUUACGCAAA | – | -2.25 ± 0.57

Row | Sequence | self-splicing fitness (ln) (37 °C) | self-splicing fitness (ln) (30 °C)
73 | AGCUAGCAAUAUUACGUUUU | -2.18 ± 0.16 | -2.36 ± 0.14
74 | CGUCAGCAAUAUUACGUACC | 0.208 ± 0.15 | -1.33 ± 0.13
75 | AAUAAGCAAUAUUACGAGGC | – | -3.35 ± 0.73
76 | UCACAGCAAUAUUACGAAGA | -1.09 ± 0.093 | -1.18 ± 0.085
77 | UACAAGCAAUAUUACGAUCA | 0.387 ± 0.11 | -0.336 ± 0.079
78 | GUCGAGCAAUAUUACGCUGA | – | -2.74 ± 0.68
79 | CUCUAGCAAUAUUACGGACU | – | -2.33 ± 0.78
80 | CUGUAGCAAUAUUACGUCCC | -0.975 ± 0.9 | -3.48 ± 1.1
81 | UGGUAGCAAUAUUACGAAUC | -3.48 ± 0.52 | –
82 | UUUUAGCAAUAUUACGAAGG | – | -2.07 ± 0.58
83 | CAUAAGCAAUAUUACGAGAA | – | -3.49 ± 0.53
84 | GAACAGCAAUAUUACGUCAC | -0.689 ± 0.17 | -3.44 ± 0.23
85 | UCUUAGCAAUAUUACGCAAU | – | -5.14 ± 1
86 | ACACAGCAAUAUUACGUGGG | -1.88 ± 0.087 | -3.5 ± 0.098
87 | UAGCAGCAAUAUUACGAAGC | -2.18 ± 1.1 | -4.59 ± 0.59
88 | CGCCAGCAAUAUUACGAAGC | – | -5.4 ± 0.71
89 | UCGGAGCAAUAUUACGCGUU | -3.21 ± 1 | -3.13 ± 1
90 | GGGGAGCAAUAUUACGAAUA | -2.48 ± 1.1 | -2.09 ± 0.57
91 | AACAAGCAAUAUUACGCUAC | – | -4.09 ± 0.51
92 | CUAUAGCAAUAUUACGAGCU | -1.79 ± 1.2 | –
93 | GGUCAGCAAUAUUACGAUCC | – | -5.28 ± 0.51
94 | UAAAAGCAAUAUUACGCCGC | – | -3.68 ± 0.6
95 | CUUUAGCAAUAUUACGGAGU | – | -2.36 ± 0.52
96 | AACGAGCAAUAUUACGCCCC | -0.778 ± 1.4 | –

Row | Sequence | self-splicing fitness (ln) (37 °C) | self-splicing fitness (ln) (30 °C)
97 | UAUGAGCAAUAUUACGAAGC | -1.13 ± 1.2 | –
98 | UCGGAGCAAUAUUACGGCAA | -2.2 ± 0.64 | –
99 | CUUAAGCAAUAUUACGCCCC | -1.26 ± 0.87 | –
100 | ACGGAGCAAUAUUACGAUUC | -2.08 ± 0.51 | –
101 | AGCUAGCAAUAUUACGGAGG | -1.33 ± 0.14 | -3.54 ± 0.16
102 | GGCUAGCAAUAUUACGGCCC | -2.4 ± 0.77 | -3.95 ± 1
103 | CACUAGCAAUAUUACGACCC | -2 ± 0.69 | -2.83 ± 0.62
104 | AAUGAGCAAUAUUACGGUAC | -0.757 ± 0.63 | –
105 | AGAGAGCAAUAUUACGCGGG | -0.234 ± 1.4 | -2.33 ± 0.78
106 | GGGAAGCAAUAUUACGACCG | 1.01 ± 0.65 | 0.507 ± 0.5
107 | CUUAAGCAAUAUUACGGCCA | -2.71 ± 0.75 | –
108 | GAAUAGCAAUAUUACGCCAC | -3.39 ± 1 | –
109 | UUUGAGCAAUAUUACGAUCU | -1.9 ± 0.54 | -2.42 ± 1.2
110 | GCAGAGCAAUAUUACGCAUC | -3.13 ± 0.6 | –
111 | CCGCAGCAAUAUUACGAUGA | -2.55 ± 0.63 | –
112 | GGUCAGCAAUAUUACGGACA | -0.179 ± 0.17 | -0.754 ± 0.19
113 | GGGCAGCAAUAUUACGAGCC | – | -4.76 ± 1
114 | CCCGAGCAAUAUUACGCAAG | -2.34 ± 0.54 | –
115 | CUCGAGCAAUAUUACGUGUC | – | -4.18 ± 0.52
116 | CCCAAGCAAUAUUACGUACC | -1.82 ± 0.28 | -5.23 ± 0.58
117 | UCUCAGCAAUAUUACGCAUG | – | -2.79 ± 1.2
118 | CAUCAGCAAUAUUACGCGAU | -2.86 ± 0.32 | -3.69 ± 0.23
119 | AGAUAGCAAUAUUACGAAGC | – | -2.62 ± 0.62
120 | CCUAAGCAAUAUUACGCUUA | -1.97 ± 0.29 | -3.09 ± 0.18
